Experimental data taken from article PMC4150809.
The exact form of at least one protein or probe is not confirmed. At least one result comes from cells or an extract, where the contact may be indirect. For part of these data: No signal at the amounts used counts as a negative.

Experiments:
[1] = biological target: LYAR (endogenous, K562 nuclear extract + identified by anti-LYAR supershift) (Homo sapiens (K562 cells)) (UniProt Q9NX58); assay: competition EMSA; conditions: LightShift kit binding buffer, 15-20 min room temperature, 6% native PAGE in 0.5x TBE, protein in an extract
[2] = biological target: LYAR (endogenous, K562 nuclear extract + identified by anti-LYAR supershift) (Homo sapiens (K562 cells)) (UniProt Q9NX58); assay: EMSA supershift; conditions: anti-LYAR antibody supershifts bands I and II, control IgG does not, LightShift kit binding buffer, 15-20 min room temperature, 6% native PAGE in 0.5x TBE, protein in an extract, label: 5'-biotin on the printed strand

## AACGTCTGAGGTTATCAATAAGCT (double strand) [gamma-globin 5'UTR WT cold competitor]
[1]; 10-, 50-, 100-fold excess, band I easily competed
  binding result: binds

## AACGTCTGAGGTTATCAATAAGCT (double strand) [gamma-globin 5'UTR WT probe (+17 to +40)]
[2]
  binding result: binds

## AACGTCTGATTCCGTCAATAAGCT (double strand) [gamma-globin 5'UTR Mut cold competitor]
[1]; up to 100-fold excess, neither band I nor II competed
  binding result: no binding
